# Data published in patent publication US20200277375A1.
# No constants are given. Whether binding was seen depends on the method and setting.
# Target: Insulin
# Experiment: development risk ELISA on coated Insulin, FIG. 8A
row,binding,Binder
1,no binding,"A-D5 in human IgG1null format (antibody, V domains shown) VH: EVQLVQSGAEVKKPGESLKISCKGSGYTFTNYYIFWVRQMPGKGLEWMGIINPVDGDTNYNPSFQGQVTISADKSISTAYLQWSSLKASDTAMYYCARGGYTMDRWGQGTLVTVSS VL: DIVMTQSPLSLPVTPGEPASISCRSSQSLLHSNGYTYLHWYLQKPGQSPQLLIYKVSNRLSGVPDRFSGSGSGTDFTLKISRVEAEDVGVYYCFQNTHTPRTFGQGTKVEIK"
2,no binding,"D-H3 in human IgG1null format (antibody, V domains shown) VH: EVQLVQSGAEVKKPGESLKISCKGSGYSFTNYYIFWVRQMPGKGLEWMGDINPVNGDTNYSPSFQGQVTISADKSISTAYLQWSSLKASDTAMYYCARGGYTPDYWGQGTLVTVSS VL: DIVMTQSPLSLPVTPGEPASISCRSSQSLLHSNGYNYLHWYLQKPGQSPQLLIYKGSNRFSGVPDRFSGSGSGTDFTLKISRVEAEDVGVYYCSQNLHVPRTFGQGTKVEIK"
3,no binding,"G-B6 in human IgG1null format (antibody, V domains shown) VH: EVQLVQSGAEVKKPGESLKISCKGSGYSFTNYYIFWVRQMPGKGLEWIGDINPVNGDTNFSPSFQGQVTISADKSISTAYLQWSSLKASDTAMYYCARGGYTMDKWGQGTLVTVSS VL: DIVMTQSPLSLPVTPGEPASISCRSSQSLVHSNGYTYLHWYLQKPGQSPQLLIYKGSYRASGVPDRFSGSGSGTDFTLKISRVEAEDVGVYYCSQNTQTPRTFGQGTKVEIK"
4,no binding,"mVH/mVL (chimeric VxP037) in human IgG1null format (antibody, V domains shown) VH: EVQLQQFGAELVKPGASMKLSCKASGYTFTNYYVFWVKQRPGQGLEWIGDINPVNGDTNFNEKFKNKATLTVDKSSTTTYLQLSSLTSEDSAVYYCTRGGYTMDYWGQGTLVTVSS VL: DVVMTQTPLSLSVSLGDQASISCRSSQSLVHSNGNTYLHWYLQKPGQSPKLLIYKVSYRFSGVPDRFSGSGSGTDFTLKISRVEAEDLGVYFCSQNTHVPRTFGQGTKVEIK"

# Target: Insulin
# Experiment: development risk ELISA on coated Insulin, FIG. 14A
row,binding,Binder
1,no binding,"A-D5.16 in human IgG1null format (antibody, V domains shown) VH: EVQLVQSGAEVKKPGESLKISCKGSGYSFTNYYIFWVRQMPGKGLEWMGIINPVDGDTRYSPSFQGQVTISADKSISTAYLQWSSLKASDTAMYYCARGGYTMDRWGQGTLVTVSS VL: DIVMTQSPLSLPVTPGEPASISCRSSQSLLHSAGYNYLHWYLQKPGQSPQLLIYKVSNRLSGVPDRFSGSGSGTDFTLKISRVEAEDVGVYYCFQNTHTPRTFGQGTKVEIK"
2,no binding,"A-D5.4 in human IgG1null format (antibody, V domains shown) VH: EVQLVQSGAEVKKPGESLKISCKGSGYTFTNYYIFWVRQMPGKGLEWMGIINPVDGDTNYNPSFQGQVTISADKSISTAYLQWSSLKASDTAMYYCARGGYTMDRWGQGTLVTVSS VL: DIVMTQSPLSLPVTPGEPASISCRSSQSLLHSNGYNYLHWYLQKPGQSPQLLIYKVSNRLSGVPDRFSGSGSGTDFTLKISRVEAEDVGVYYCFQNTHTPRTFGQGTKVEIK"
